# Some entries share one result that the patent states for a list of compounds.
# Experiments:
# [1] = tested on: cord blood-derived NK cells; test: Regulation of mbIL15 construct with ACZ in cord blood-derived NK cells (IL15Ra-Fc and anti-CD56 FACS); format: cell-based, human; details: 10 μM ACZ overnight, regardless of donor
# Method: One day prior to NK cell isolation as described in Example 8, feeder cells (K562 cells expressing 4-1BBL and mblL-21) were thawed in complete NK cell media (RPMI with Glutamax (ThermoFisher), 10% heat-inactivated fetal bovine serum (Gibco), 1× Penicillin/Streptomycin, 1 mM Sodium Pyruvate, 1×HEPES, 50 μM 2-Mercaptoethanol). On the day of NK cell isolation, 10×10^6 feeder cells were treated with mitomycin C to inhibit their proliferation and washed to remove excess drug. NK cells were added to the feeder cells at a 1:2 effector to target ratio in NK cell media with 200 U/mL recombinant human IL2 (rhIL2; PeproTech). NK cell cultures were expanded by replenishing cell cultures with NK cell media and rhIL2 every two days, and analyzed by FACS for NK cell expansion.
# 96-well non-coated tissue culture plates were incubated with 35 μg per mL RetroNectin (Takara Bio) in PBS for 2 h at 37° C. or overnight at 4° C. RetroNectin was removed and the plates washed with PBS. […]
# NK cells from three different donors were isolated, expanded and transduced with BaEV-pseudotyped lentivirus containing either the IL15-292 construct or the IL15-293 construct. The titer of the IL15-292 lentivirus was 2.38×10^8 TU/mL while the titer for the IL15-293 lentivirus was 6.51×10^8 TU/mL (as measured by a Jurkat qPCR titer), and 4 μL lentivirus and 46 μL NK cell media were added to each well. […]
# T cells [2] = test: Acetazolamide dose response of IL15 expression on transduced T cells (flow cytometry); format: cell-based, human; details: ACZ 24 hrs
# Method: Cells were treated with different concentrations of ACZ (ligand) starting at 100 μM for 24 hrs. Graphs show % IL15+ T Cells (FIG. 4A) and mean fluorescence intensity (MFI) of IL15 (FIG. 4B).
# The effect of different concentrations of ACZ on IL15 expression was tested. T cells were treated with ACZ for 24 hrs starting at 100 μM, diluted 3-fold for 9 points. Both % IL15+ T Cells (FIG. 4A) and IL15 Mean Fluorescence Intensity (MFI) (FIG. 4B) analysis indicated similar dose curves for OT-IL15-293 and OT-IL15-295. There was 4-5-fold increase in expression (both % IL15+ T cells and IL15 MFI) between highest and lowest concentrations of ACZ.
# T cells [3] = test: IL15 expression on T cells in vivo on day 25 (IL15Ra-Fc staining, flow cytometry); design: species or system NSG mice; details: day 25, vehicle-treated
# Method: Human primary T cells capable of expressing constitutive mbIL15 or ACZ-regulated mbIL15 were prepared in accordance with methods described in Example 1 above. After T cell transduction and expansion, CD3/CD28 beads were removed using magnets, cells were washed twice, resuspended in fresh media and counted. T cells were mixed with expanded NK cells and each animal received 5×10^6 T cells and 2×10^6 expanded NK cells. Cells were infused by intravenous injections into NSG mice. Animals infused with T cells expressing regulated constructs were dosed daily with 200 mg/kg ACZ or vehicle by PO injections. Every 3-4 days, 50 μL blood was analyzed by flow cytometry for presence of T cells and NK cells using antibodies against mouse and human CD45, CD3 and CD56. IL15 expression on day 25 was analyzed using IL15Ra-Fc and fluorochrome conjugated anti-human IgG antibody.
# IL15 expression on T cells in vivo on day 25 was analyzed by flow cytometry (FIG. 5C). T cells transduced with constitutive constructs IL15-292 and IL15-294 expressed high levels of IL15 (82% and 61%). IL15 expression was <1.5% in vehicle-treated IL15-293 and IL15-295 as well as EV groups. IL15 expression levels were 11% and 9% on T cells transduced with IL15-293 and IL15-295 in groups treated with ACZ.
substance,measurement,setting,value
"IL15-293: ACZ-regulated mbIL15 construct, mbIL15 linked to CA2 (M1del, L156H) DRD (AA SEQ ID NO: 24)",regulated mbIL15 expression in NK cells,[1],greater than 40%
same,increase in expression (both % IL15+ T cells and IL15 MFI) between highest and lowest concentrations of ACZ,T cells [2],4-5 fold
same,IL15 expression on T cells,T cells [3],< 1.5%

# — patent US11058725B2, “CA2 compositions and methods for tunable regulation” (Obsidian Therapeutics, Inc., priority 2019, dated 2021)
